Source: PubChem BioAssay AID686938 (Drosophila RNAi Screening Center, 2013)
Aim: 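Fly genes required for calcium entry once internal stores are emptied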 (primary screen). System: Drosophila S2R+ cells. Reagents: long dsRNA against Drosophila genes, about 0.25 µg dsRNA per well, roughly 10,000 cells. Time to read-out: 5 days of knock-down before the calcium assay. Challenge: thapsigargin (SERCA pump blocker) to empty calcium stores; entry signal taken 4 min after adding it. Measurement: 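Per-well fluo-4 fluorescence in two replicates, unnormalised, measured in resting cells and 4 min after store depletion by the SERCA blocker thapsigargin; ratio of the two present in few wells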. Scale: calcium entry signal: higher = stronger calcium signal after store depletion; entry to resting ratio: higher = more calcium entry relative to resting level; resting calcium signal: higher = higher resting calcium signal. Call rule: 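Called when the plate z-score of the entry-to-rest ratio, mean of duplicates, falls below −3; wells with low overall dye signal (Fmax z below −2) or more than five off-targets excluded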. Calls: active = strongly reduced calcium entry; inactive = no strong reduction.
The screen tested about 23,000 reagents; shown is a random part of those that have a named target and a result. Over the whole deposit, 75 (0.33%) were called active. 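Raw plate signals without normalisation; calls rest on plate z-scores that were not deposited; ratio present for only 364 wells.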 A plus sign joins genes that one reagent is predicted to hit. The record does not give: the dose of the treatment.

Gene	DRSC id	calcium entry signal, replicate 1 (fluorescence units)	calcium entry signal, replicate 2 (fluorescence units)	entry to resting ratio	resting calcium signal, replicate 1 (fluorescence units)	resting calcium signal, replicate 2 (fluorescence units)	Outcome
Aptx (aprataxin)	DRSC15768	3.54e7	3.83e7		4.37e7	1.59e7	inactive
Spn85F (Serpin 85F)	DRSC14545	4.53e7	1.82e7		2.10e7	1.04e7	inactive
CG12081	DRSC17802	2.93e7	3.47e7		1.46e7	1.53e7	inactive
Epp (Ecdysteroid phosphate phosphatase)	DRSC14607	2.40e7	2.44e7		1.28e7	1.17e7	inactive
IP3K2 (Inositol 1,4,5-triphosphate kinase 2)	DRSC19500	4.39e7	4.37e7		2.01e7	1.93e7	inactive
IP3K2 (Inositol 1,4,5-triphosphate kinase 2)	DRSC19747	4.01e7	6.38e7		1.98e7	3.01e7	inactive
IP3K2 (Inositol 1,4,5-triphosphate kinase 2)	DRSC22614	3.62e7	3.61e7		2.22e7	1.85e7	inactive
Dhc64C (Dynein heavy chain 64C)	DRSC08656	4.74e7	3.82e7		3.38e7	1.74e7	inactive
CG18249	DRSC15318	2.62e7	3.46e7		1.19e7	1.43e7	inactive
CG8066	DRSC16374	2.91e7	5.03e7		1.45e7	6.78e7	inactive
Obp58b (Odorant-binding protein 58b)	DRSC04161	3.92e7	3.81e7		2.01e7	1.85e7	inactive
Mau2	DRSC15550	3.71e7	5.37e7		1.59e7	2.24e7	inactive
mRpL20 (mitochondrial ribosomal protein L20)	DRSC09828	3.74e7	4.81e7		1.85e7	1.91e7	inactive
CG30270	DRSC22890	4.24e7	3.35e7		2.53e7	1.61e7	inactive
Lamtor2 + CG30120	DRSC05726	2.33e7	4.87e7		1.14e7	2.05e7	inactive
Lamtor2 + CG30120	DRSC06922	5.61e7	5.11e7		2.22e7	2.44e7	inactive
CG43090	DRSC17439	3.61e7	3.55e7		1.71e7	1.80e7	inactive
Lapsyn (Leucine-rich repeat activity-regulated protein at synapses)	DRSC04249	3.92e7			2.00e7		inactive
Rx (Retinal Homeobox)	DRSC03837	3.79e7	5.08e7		1.72e7	2.00e7	inactive
Rx (Retinal Homeobox)	DRSC04652	4.49e7	4.28e7		1.98e7	1.85e7	inactive
CG17140 + CG17139	DRSC02585	2.40e7	3.60e7		1.09e7	1.45e7	inactive
CG17140 + CG17139	DRSC02586	2.56e7	3.81e7		1.26e7	1.58e7	inactive
ida (imaginal discs arrested)	DRSC08163	3.60e7	2.71e7		2.37e7	1.67e7	inactive
Vha36-3 (Vacuolar H[+] ATPase 36kD subunit 3)	DRSC18615	2.95e7	4.93e7	1.7	1.75e7	2.07e7	inactive
CG10949	DRSC02112	3.84e7			2.11e7		inactive
CG43101	DRSC05520	4.15e7	3.96e7		1.96e7	1.61e7	inactive
ND-ASHI (NADH dehydrogenase (ubiquinone) ASHI subunit)	DRSC18291	3.49e7	5.06e7		1.76e7	2.14e7	inactive
Brr2 (Brr2 U5 snRNP complex subunit)	DRSC10559	2.88e7	2.09e7		2.56e7	1.21e7	inactive
VGAT (Vesicular GABA Transporter)	DRSC07160	4.29e7	3.43e7		2.30e7	1.52e7	inactive
CG1998	DRSC19829	4.28e7	4.59e7		2.07e7	2.19e7	inactive
CG4957	DRSC02793	4.04e7	5.25e7		1.76e7	2.29e7	inactive
Acph-1 (Acid phosphatase 1)	DRSC14103	4.04e7	4.77e7		2.15e7	2.35e7	inactive
CG5172	DRSC19936	3.99e7	3.14e7		1.92e7	1.40e7	inactive
t-Grip91 (testis-specific gamma-tubulin ring protein 91)	DRSC01506	3.04e7	3.80e7		1.66e7	1.77e7	inactive
mthl6 (methuselah-like 6)	DRSC10234	3.28e7	4.09e7		1.54e7	1.98e7	inactive
CG8191 + CG12379	DRSC19451	3.23e7	2.98e7		1.57e7	1.28e7	inactive
thoc6	DRSC10528	5.76e7	4.96e7		3.75e7	2.13e7	inactive
CG13126	DRSC02222	3.69e7	4.70e7		1.67e7	1.88e7	inactive
CG14451	DRSC11708	2.10e7	2.97e7		9.75e6	1.47e7	inactive
Nct (Nicastrin)	DRSC16172	3.82e7	3.76e7		1.74e7	1.45e7	inactive
snoRNA:U31:54Ec + snoRNA:snR38:54Eb + snoRNA:U27:54Eb + 8 more	DRSC06458	3.58e7	4.87e7		1.75e7	2.41e7	inactive
sky (skywalker)	DRSC02383	3.26e7			1.61e7		inactive
sky (skywalker)	DRSC03214	2.98e7			1.36e7		inactive
sky (skywalker)	DRSC03215	4.64e7	4.94e7		2.33e7	2.06e7	inactive
RpL32 (Ribosomal protein L32)	DRSC16835	1.39e7	1.45e7		1.01e7	1.15e7	inactive
CG6933	DRSC10751	2.97e7	4.35e7		1.44e7	3.03e7	inactive
dsf (dissatisfaction)	DRSC03524	2.81e7	2.82e7		1.39e7	1.36e7	inactive
CG10340	DRSC14232	3.78e7	3.08e7		1.87e7	1.43e7	inactive
Camp (Cathelicidin-like antimicrobial protein)	DRSC07004	4.85e7	4.37e7		1.96e7	2.13e7	inactive
GstE12 (Glutathione S transferase E12)	DRSC04047	4.97e7	5.02e7		2.27e7	2.25e7	inactive
Naa30A (N(alpha)-acetyltransferase 30 A)	DRSC18583	3.34e7	3.70e7		1.77e7	1.97e7	inactive
Naa30A (N(alpha)-acetyltransferase 30 A)	DRSC23214	3.97e7	4.01e7		2.05e7	1.93e7	inactive
bab2 (bric a brac 2)	DRSC08150	2.89e7	3.34e7		1.49e7	1.62e7	inactive
bab2 (bric a brac 2)	DRSC08380	2.54e7	2.96e7		1.42e7	1.35e7	inactive
lbm (late bloomer)	DRSC07643	2.86e7	4.11e7		1.37e7	1.83e7	inactive
CG11663	DRSC17793	4.25e7	5.50e7	1.9	2.20e7	2.34e7	inactive
CG11663	DRSC23063	3.06e7	3.39e7		1.65e7	1.55e7	inactive
CG14710	DRSC14933	3.22e7	3.54e7		1.48e7	1.59e7	inactive

Individual results from above.
Value of Naa30A (N(alpha)-acetyltransferase 30 A) [DRSC18583] under “resting calcium signal, replicate 2 (fluorescence units)”: 1.97e7
ida (imaginal discs arrested) [DRSC08163], calcium entry signal, replicate 1 (fluorescence units): 3.60e7
snoRNA:U31:54Ec + snoRNA:snR38:54Eb + snoRNA:U27:54Eb + 8 more [DRSC06458], resting calcium signal, replicate 2 (fluorescence units) = 2.41e7
Value for CG17140 + CG17139 [DRSC02586] under “resting calcium signal, replicate 2 (fluorescence units)”: 1.58e7
Value of Rx (Retinal Homeobox) [DRSC04652] under “Outcome”: inactive
Under “Outcome”, CG11663 [DRSC17793] is entered as inactive
